From article PMC7819943, “Rice protein-binding microarrays: a tool to detect cis-acting elements near promoter regions in rice”
The other results are listed elsewhere or left out.

target: T1, OsSMF1 (Oryza sativa, UniProt Q6ZLB0 1-436); test: protein-binding microarray (RPBM); PBS, 2% BSA, 51.3 ng/ul salmon testes DNA, 50 uM zinc acetate, 200 nM TF, 25 C, 1 h; high values mean tight binding; details: protein: recombinant; tags: N-terminal polyhistidine and DsRed monomer fusion (pET32a); chain copies: 2; label: CyDye5-dUTP incorporated in the synthesized complementary strand; 3' TTTTT single-stranded linker to array surface; dsDNA, one strand shown
T1 sequence: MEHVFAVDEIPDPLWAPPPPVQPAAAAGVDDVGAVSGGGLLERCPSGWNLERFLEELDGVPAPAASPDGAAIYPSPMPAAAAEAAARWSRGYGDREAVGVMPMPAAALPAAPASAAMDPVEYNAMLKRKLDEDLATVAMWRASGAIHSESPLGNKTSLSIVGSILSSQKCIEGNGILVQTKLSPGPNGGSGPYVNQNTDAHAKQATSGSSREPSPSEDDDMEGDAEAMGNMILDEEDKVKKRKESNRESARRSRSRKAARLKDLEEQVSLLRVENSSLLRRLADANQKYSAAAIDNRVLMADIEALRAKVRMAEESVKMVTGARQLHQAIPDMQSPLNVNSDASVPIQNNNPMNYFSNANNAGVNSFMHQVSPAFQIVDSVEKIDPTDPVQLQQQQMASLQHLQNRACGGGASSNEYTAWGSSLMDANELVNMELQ
Outline: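 Binding signal is defined as the fluorescence intensity of each feature in arbitrary units, read on an Axon 4000B scanner. Transcription factors with N-terminal polyhistidine and DsRed fusions came from E. coli BL21-CodonPlus and were purified on Ni–NTA. They were incubated at 200 nM for 1 h at 25 °C on a custom Agilent array that had been made double-stranded with Cy5-dUTP, with 50 µM zinc acetate present, and the array was washed.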

Sequence | binding signal
TGCCCACACAATCCACTCATGACTATATCTATCTATCTATCGGAGTCACCTAGTGCAG | 4090 fluorescence intensity (a.u.)
GTCCGGCGTGTGGGTGTACCAGAACTCGTCGTCGCCGTGGCGGAGTCACCTAGTGCAG | 3550 fluorescence intensity (a.u.)
CAGAAAATATCAAGCACGCGTCATCACCAGCAAGTGACGGCGGAGTCACCTAGTGCAG | 7240 fluorescence intensity (a.u.)
TGGGCCCTGCACTGACTCAGCCACCACGTCAACAAAACCGCGGAGTCACCTAGTGCAG | 12800 fluorescence intensity (a.u.)
AGTTAGCAACTTCCATTTCTAAACAATGCGCTGGTCAGCACGGAGTCACCTAGTGCAG | 3790 fluorescence intensity (a.u.)
ACTACCATGCAGTCTTTAACTTCTTCCCCAGAATACGTCACGGAGTCACCTAGTGCAG | 4350 fluorescence intensity (a.u.)
GGCGGCGGCTGCGGCGATGGCGGGGCAGGAGCGGAGGACGCGGAGTCACCTAGTGCAG | 3420 fluorescence intensity (a.u.)
ATACTAGTAATATGCCCGTGCTAACGCTACGTGTATGTTTCGGAGTCACCTAGTGCAG | 4230 fluorescence intensity (a.u.)
AATTCCCATTGCGTGGACCGACGACGAAACGACCGTGTCCCGGAGTCACCTAGTGCAG | 3240 fluorescence intensity (a.u.)
TTTGCGCATGTTCAAGAACAATCTGTGACTTGACAACAGACGGAGTCACCTAGTGCAG | 3230 fluorescence intensity (a.u.)
TCAGGAGGGAGATAACGGTTGCCACGTGGAAGCTAGCCGCCGGAGTCACCTAGTGCAG | 16900 fluorescence intensity (a.u.)
CAGTCTGTCTTGGTCTCTTTGTTCAGTCATGGTCTCTCTTCGGAGTCACCTAGTGCAG | 3260 fluorescence intensity (a.u.)
CAACCCAAGGTTGTGCTGCCCCGTTTCCTTGTGTCAGAAACGGAGTCACCTAGTGCAG | 3170 fluorescence intensity (a.u.)
ACGACAACGACGAGCTCTGGTCATGAACACGACCAAGTGACGGAGTCACCTAGTGCAG | 3820 fluorescence intensity (a.u.)
TTGTCCGATGTGGCAGTTGAGTCAGCATGAGACCCACGTACGGAGTCACCTAGTGCAG | 14200 fluorescence intensity (a.u.)
AGAAATAGATATAGGTGTTCTCAATCCGAAAATTCGGAACCGGAGTCACCTAGTGCAG | 3720 fluorescence intensity (a.u.)
GAATTTACTTTAGCGGAGATTGAGCACTTTGTGGACCCAGCGGAGTCACCTAGTGCAG | 52400 fluorescence intensity (a.u.)
GTTGCCTTCGTGTCCAGTGGATAGATAAGGATAGGATTTTCGGAGTCACCTAGTGCAG | 65500 fluorescence intensity (a.u.)
TGGTGCTAGCTAGTGCTAGTGCCAGTGTCCAGTGGTGGTACGGAGTCACCTAGTGCAG | 3290 fluorescence intensity (a.u.)
CAGCCCTTGAGCAGTTCTTGGTGGCTTCAGCCATCCAAACCGGAGTCACCTAGTGCAG | 23400 fluorescence intensity (a.u.)
TACATTTTGGTGGAAATGAGTTACCTGTTGAGTGTACTAACGGAGTCACCTAGTGCAG | 3510 fluorescence intensity (a.u.)

Looked up above:
For binding signal, GTCCGGCGTGTGGGTGTACCAGAACTCGTCGTCGCCGTGGCGGAGTCACCTAGTGCAG has the entry 3550 fluorescence intensity (a.u.)
For binding signal, GGCGGCGGCTGCGGCGATGGCGGGGCAGGAGCGGAGGACGCGGAGTCACCTAGTGCAG has the entry 3420 fluorescence intensity (a.u.)
For binding signal, CAGTCTGTCTTGGTCTCTTTGTTCAGTCATGGTCTCTCTTCGGAGTCACCTAGTGCAG has the entry 3260 fluorescence intensity (a.u.)

Next part:

Sequence | binding signal
TGTGAGTAGTTTGTGGTTGGGAGTGTAACGGGTGGGGTGGCGGAGTCACCTAGTGCAG | 4010 fluorescence intensity (a.u.)
GCTGCACCGCCGCCATCGTCGTGGTTGGGACTTGGGAGAGCGGAGTCACCTAGTGCAG | 5190 fluorescence intensity (a.u.)
TGCATGCTGTTTAATTTTATCATGTGTGCAAATGGTTATACGGAGTCACCTAGTGCAG | 3580 fluorescence intensity (a.u.)
ACTTTCAGTGGGCTCGCGTTGAATGTTGGTGATGGTCAGACGGAGTCACCTAGTGCAG | 4360 fluorescence intensity (a.u.)
TCCGCCATCTCCTCCCCGACCATCGCCACCTCCTTCTCCTCGGAGTCACCTAGTGCAG | 3300 fluorescence intensity (a.u.)
AAACGATAAAGCAAGCAAGTGACGCAGATGATTACAAGACCGGAGTCACCTAGTGCAG | 4520 fluorescence intensity (a.u.)
AAATTGTGCACGTGTAATACACGTCGTGACCTATATTAAACGGAGTCACCTAGTGCAG | 5690 fluorescence intensity (a.u.)
TGTGCTGTGTGGTGTACTGGTGTGTGGGCTTAATAATTGTCGGAGTCACCTAGTGCAG | 4340 fluorescence intensity (a.u.)
AAACATTAGATTATTCTCACAAGAGTTATTCGATGATAATCGGAGTCACCTAGTGCAG | 27800 fluorescence intensity (a.u.)
CCCTAGTCTCCTCCCTTGTACATAGGCAAATCCATACGCACGGAGTCACCTAGTGCAG | 3640 fluorescence intensity (a.u.)
TCAATAATGTGTGCGTGACCTGGGCAAGTGGCGGTAGCAACGGAGTCACCTAGTGCAG | 3540 fluorescence intensity (a.u.)
GACACAAACAAAATCGAGAAGATGGCATACCTACCATACACGGAGTCACCTAGTGCAG | 22800 fluorescence intensity (a.u.)
TGGACACTTTGAGCTAAGCTCTCATCTTTCGTCTAAATCTCGGAGTCACCTAGTGCAG | 3150 fluorescence intensity (a.u.)
TGGGTGCCACGTCCGCGACGCGACCCGCTGGCGCTGTGGCCGGAGTCACCTAGTGCAG | 11900 fluorescence intensity (a.u.)
TCAAACAACTTCTTTTCATTGTTGTGTATGACACTATACTCGGAGTCACCTAGTGCAG | 3140 fluorescence intensity (a.u.)
ATCAAACACACCAAATAAGCAAGTGGATGGTGGTGGTGGTCGGAGTCACCTAGTGCAG | 3980 fluorescence intensity (a.u.)
CTATCCGACAACGACGACGCCGGTGAAGGGGAACTCGTCCCGGAGTCACCTAGTGCAG | 3180 fluorescence intensity (a.u.)
GCGGTTCTGCCAGCATTTGATTGGTCCACGTGGTGCCATACGGAGTCACCTAGTGCAG | 10400 fluorescence intensity (a.u.)
TTGTCTAAGGACAAAATTATCTGCCACGCTCCACTAAAATCGGAGTCACCTAGTGCAG | 3240 fluorescence intensity (a.u.)
GAGCACTAGCAGAAGTGGCAGAGAGGAAGAGTAACCTAGCCGGAGTCACCTAGTGCAG | 22900 fluorescence intensity (a.u.)
ACCTCCCACACCTGTGTCGATCCAGGCAGGCCGAGCGCGACGGAGTCACCTAGTGCAG | 43400 fluorescence intensity (a.u.)
